In the supplement of paper PMC8728848:
The other results are listed elsewhere or left out.

Tests used:
Test in all cases: glycan array binding signal (z-score within array); higher = stronger binding
Conditions in all cases: glycan notation: IUPAC condensed, linker removed
[1] = system: Neu5Ac(a2-3)Gal(b1-4)GlcNAc(b1-3)Gal
Method in brief: (§1)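 The binding signal is a Z-score computed within each array and averaged over linkers. Arrays of the same protein sequence at different concentrations or buffers were also averaged together. Data originate from 3228 arrays in the Consortium for Functional Glycomics database, kept only where the protein sequence was available.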

[2] = system: Neu5Ac(a2-3)Gal(b1-4)GlcNAc(b1-3)[Neu5Ac(a2-3)Gal(b1-4)GlcNAc(b1-6)]GalNAc
Method in brief: as §1

[3] = system: Neu5Ac(a2-3)Gal(b1-4)GlcNAc(b1-6)GalNAc
Method in brief: as §1

[4] = system: Neu5Ac(a2-3)Gal(b1-4)GlcNAc(b1-6)[Gal(b1-3)]GalNAc
Method in brief: as §1

[5] = system: Neu5Ac(a2-3)Gal(b1-4)GlcNAc(b1-6)[Neu5Ac(a2-3)Gal(b1-3)]GalNAc
Method in brief: as §1

[6] = system: Neu5Ac(a2-3)Gal(b1-4)GlcNAc6S
Method in brief: as §1

[7] = system: Neu5Ac(a2-3)Gal(b1-4)GlcNAc
Method in brief: as §1

Neu5Ac(a2-3)Gal(b1-4)Glc = system: Neu5Ac(a2-3)Gal(b1-4)Glc
Method in brief: as §1

[8] = system: Neu5Ac(a2-3)Gal(b1-4)[Fuc(a1-3)]GlcNAc(b1-2)Man
Method in brief: as §1

[9] = system: Neu5Ac(a2-3)Gal(b1-4)[Fuc(a1-3)]GlcNAc(b1-3)Gal(b1-4)GlcNAc
Method in brief: as §1

[10] = system: Neu5Ac(a2-3)Gal(b1-4)[Fuc(a1-3)]GlcNAc(b1-3)Gal(b1-4)[Fuc(a1-3)]GlcNAc(b1-3)Gal(b1-4)[Fuc(a1-3)]GlcNAc
Method in brief: as §1

[11] = system: Neu5Ac(a2-3)Gal(b1-4)[Fuc(a1-3)]GlcNAc(b1-3)GalNAc
Method in brief: as §1

[12] = system: Neu5Ac(a2-3)Gal(b1-4)[Fuc(a1-3)]GlcNAc(b1-3)Gal
Method in brief: as §1

[13] = system: Neu5Ac(a2-3)Gal(b1-4)[Fuc(a1-3)]GlcNAc(b1-6)[Gal(b1-3)]GalNAc
Method in brief: as §1

[14] = system: Neu5Ac(a2-3)Gal(b1-4)[Fuc(a1-3)]GlcNAc(b1-6)[Neu5Ac(a2-3)Gal(b1-3)]GalNAc
Method in brief: as §1

[15] = system: Neu5Ac(a2-3)Gal(b1-4)[Fuc(a1-3)]GlcNAc6S
Method in brief: as §1

[16] = system: Neu5Ac(a2-3)Gal(b1-4)[Fuc(a1-3)]GlcNAc
Method in brief: as §1

[17] = system: Neu5Ac(a2-3)Gal6S(b1-4)GlcNAc
Method in brief: as §1

[18] = system: Neu5Ac(a2-3)Gal6S(b1-4)[Fuc(a1-3)]GlcNAc
Method in brief: as §1

[19] = system: Neu5Ac(a2-3)GalNAc(b1-4)GlcNAc
Method in brief: as §1

Neu5Ac(a2-3)GalNAc = system: Neu5Ac(a2-3)GalNAc
Method in brief: as §1

Neu5Ac(a2-3)Gal = system: Neu5Ac(a2-3)Gal
Method in brief: as §1

[20] = system: Neu5Ac(a2-3)[GalNAc(b1-4)]Gal(b1-4)GlcNAc(b1-3)GalNAc
Method in brief: as §1

[21] = system: Neu5Ac(a2-3)[GalNAc(b1-4)]Gal(b1-4)GlcNAc
Method in brief: as §1

[22] = system: Neu5Ac(a2-3)[GalNAc(b1-4)]Gal(b1-4)Glc
Method in brief: as §1

[23] = system: Neu5Ac(a2-3)[Neu5Ac(a2-6)]GalNAc
Method in brief: as §1

[24] = system: Neu5Ac(a2-6)Gal(b1-3)GlcNAc(b1-3)[Gal(b1-4)GlcNAc(b1-6)]Gal(b1-4)Glc
Method in brief: as §1

[25] = system: Neu5Ac(a2-6)Gal(b1-4)GlcNAc(b1-2)Man(a1-3)Man(b1-4)GlcNAc(b1-4)GlcNAc
Method in brief: as §1

[26] = system: Neu5Ac(a2-6)Gal(b1-4)GlcNAc(b1-2)Man(a1-3)[Gal(b1-4)GlcNAc(b1-2)Man(a1-6)]Man(b1-4)GlcNAc(b1-4)GlcNAc
Method in brief: as §1

[27] = system: Neu5Ac(a2-6)Gal(b1-4)GlcNAc(b1-2)Man(a1-3)[GlcNAc(b1-4)][Neu5Ac(a2-6)Gal(b1-4)GlcNAc(b1-2)Man(a1-6)]Man(b1-4)GlcNAc(b1-4)GlcNAc
Method in brief: as §1

[28] = system: Neu5Ac(a2-6)Gal(b1-4)GlcNAc(b1-2)Man(a1-3)[Man(a1-6)]Man(b1-4)GlcNAc(b1-4)GlcNAc
Method in brief: as §1

[29] = system: Neu5Ac(a2-6)Gal(b1-4)GlcNAc(b1-2)Man(a1-3)[Neu5Ac(a2-3)Gal(b1-4)GlcNAc(b1-2)Man(a1-6)]Man(b1-4)GlcNAc(b1-4)GlcNAc
Method in brief: as §1

## MpAFP RI GFP (Marinomonas primoryensis)
[1]
  glycan array binding signal (z-score): -0.665
[2]
  glycan array binding signal (z-score): -0.417
[3]
  glycan array binding signal (z-score): -0.342
[4]
  glycan array binding signal (z-score): 2.43
[5]
  glycan array binding signal (z-score): -0.51
[6]
  glycan array binding signal (z-score): -0.6
[7]
  glycan array binding signal (z-score): 0.602
Neu5Ac(a2-3)Gal(b1-4)Glc
  glycan array binding signal (z-score): -0.373
[8]
  glycan array binding signal (z-score): -0.617
[9]
  glycan array binding signal (z-score): 1.56
[10]
  glycan array binding signal (z-score): -0.039
[11]
  glycan array binding signal (z-score): 1.52
[12]
  glycan array binding signal (z-score): -0.398
[13]
  glycan array binding signal (z-score): 0.494
[14]
  glycan array binding signal (z-score): 1.08
[15]
  glycan array binding signal (z-score): -0.524
[16]
  glycan array binding signal (z-score): -0.791
[17]
  glycan array binding signal (z-score): -0.72
[18]
  glycan array binding signal (z-score): -0.564
[19]
  glycan array binding signal (z-score): -0.461
Neu5Ac(a2-3)GalNAc
  glycan array binding signal (z-score): 2.97
Neu5Ac(a2-3)Gal
  glycan array binding signal (z-score): -0.561
[20]
  glycan array binding signal (z-score): -0.407
[21]
  glycan array binding signal (z-score): -0.664
[22]
  glycan array binding signal (z-score): -0.635
[23]
  glycan array binding signal (z-score): 2.42
[24]
  glycan array binding signal (z-score): -0.277
[25]
  glycan array binding signal (z-score): 0.699
[26]
  glycan array binding signal (z-score): 1.1
[27]
  glycan array binding signal (z-score): -0.435
[28]
  glycan array binding signal (z-score): 0.118
[29]
  glycan array binding signal (z-score): -0.544
